From PMC9684564
These are yes or no findings as the source states them, for the method shown. In cells and extracts the contact can be indirect. A yes stands for co-enrichment or nearness to the bait. Other partners may have been found.

By UniProt entry, the sequences of proteins in these tests, tags left out.
UniProt Q14974: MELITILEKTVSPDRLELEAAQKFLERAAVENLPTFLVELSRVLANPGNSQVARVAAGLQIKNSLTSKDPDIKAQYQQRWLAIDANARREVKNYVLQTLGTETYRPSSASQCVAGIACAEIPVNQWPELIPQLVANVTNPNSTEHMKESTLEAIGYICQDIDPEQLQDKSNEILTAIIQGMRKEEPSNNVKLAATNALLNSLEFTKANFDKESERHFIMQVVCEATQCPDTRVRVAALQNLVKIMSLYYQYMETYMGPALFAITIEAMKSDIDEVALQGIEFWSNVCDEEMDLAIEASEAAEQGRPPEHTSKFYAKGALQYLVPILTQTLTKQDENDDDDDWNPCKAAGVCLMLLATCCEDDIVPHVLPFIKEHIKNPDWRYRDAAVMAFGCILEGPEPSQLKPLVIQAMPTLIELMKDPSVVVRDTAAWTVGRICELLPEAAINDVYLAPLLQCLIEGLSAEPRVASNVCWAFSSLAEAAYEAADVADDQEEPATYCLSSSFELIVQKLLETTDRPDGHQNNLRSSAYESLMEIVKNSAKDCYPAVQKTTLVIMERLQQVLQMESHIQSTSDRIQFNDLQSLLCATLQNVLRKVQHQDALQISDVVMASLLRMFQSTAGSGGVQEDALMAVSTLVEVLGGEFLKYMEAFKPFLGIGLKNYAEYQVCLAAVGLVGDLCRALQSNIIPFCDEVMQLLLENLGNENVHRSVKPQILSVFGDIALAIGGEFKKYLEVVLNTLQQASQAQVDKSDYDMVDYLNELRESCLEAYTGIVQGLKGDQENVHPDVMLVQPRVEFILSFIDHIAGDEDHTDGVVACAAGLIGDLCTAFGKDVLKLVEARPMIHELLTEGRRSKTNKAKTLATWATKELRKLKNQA
UniProt P08621: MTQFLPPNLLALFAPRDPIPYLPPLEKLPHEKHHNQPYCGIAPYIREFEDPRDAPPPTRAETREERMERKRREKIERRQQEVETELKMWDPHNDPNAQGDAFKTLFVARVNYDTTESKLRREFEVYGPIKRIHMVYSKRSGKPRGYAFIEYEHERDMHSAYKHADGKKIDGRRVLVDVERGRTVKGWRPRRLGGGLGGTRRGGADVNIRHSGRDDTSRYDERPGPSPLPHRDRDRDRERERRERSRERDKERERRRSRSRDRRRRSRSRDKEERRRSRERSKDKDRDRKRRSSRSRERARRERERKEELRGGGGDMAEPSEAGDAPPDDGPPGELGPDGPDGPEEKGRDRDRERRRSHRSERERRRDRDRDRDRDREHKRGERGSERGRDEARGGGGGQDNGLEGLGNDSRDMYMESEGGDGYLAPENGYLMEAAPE
UniProt Q15717: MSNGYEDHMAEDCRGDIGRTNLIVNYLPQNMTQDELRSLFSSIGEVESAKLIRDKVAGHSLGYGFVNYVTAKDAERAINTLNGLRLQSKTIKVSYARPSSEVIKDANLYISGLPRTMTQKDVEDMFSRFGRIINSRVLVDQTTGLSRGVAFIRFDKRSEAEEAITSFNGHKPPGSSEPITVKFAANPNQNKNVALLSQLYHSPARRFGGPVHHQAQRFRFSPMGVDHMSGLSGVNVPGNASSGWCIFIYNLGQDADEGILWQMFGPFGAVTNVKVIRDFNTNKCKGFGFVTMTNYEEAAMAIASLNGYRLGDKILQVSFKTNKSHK
UniProt O43684: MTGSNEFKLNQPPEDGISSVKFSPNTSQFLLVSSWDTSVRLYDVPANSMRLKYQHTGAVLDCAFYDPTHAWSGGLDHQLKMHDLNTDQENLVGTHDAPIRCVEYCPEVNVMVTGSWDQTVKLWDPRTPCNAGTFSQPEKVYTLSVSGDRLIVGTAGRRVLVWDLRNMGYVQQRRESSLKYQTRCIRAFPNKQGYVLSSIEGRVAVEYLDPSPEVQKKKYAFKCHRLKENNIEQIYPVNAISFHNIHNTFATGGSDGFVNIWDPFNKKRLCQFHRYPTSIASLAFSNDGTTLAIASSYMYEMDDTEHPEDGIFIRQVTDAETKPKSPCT
UniProt Q07955: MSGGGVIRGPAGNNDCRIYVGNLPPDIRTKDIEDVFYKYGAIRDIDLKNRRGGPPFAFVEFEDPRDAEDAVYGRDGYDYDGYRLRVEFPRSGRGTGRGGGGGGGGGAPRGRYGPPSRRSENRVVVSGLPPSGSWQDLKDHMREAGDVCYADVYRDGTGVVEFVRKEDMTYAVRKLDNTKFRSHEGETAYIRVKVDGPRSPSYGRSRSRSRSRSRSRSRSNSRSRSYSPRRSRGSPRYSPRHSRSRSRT
UniProt A5YKK6: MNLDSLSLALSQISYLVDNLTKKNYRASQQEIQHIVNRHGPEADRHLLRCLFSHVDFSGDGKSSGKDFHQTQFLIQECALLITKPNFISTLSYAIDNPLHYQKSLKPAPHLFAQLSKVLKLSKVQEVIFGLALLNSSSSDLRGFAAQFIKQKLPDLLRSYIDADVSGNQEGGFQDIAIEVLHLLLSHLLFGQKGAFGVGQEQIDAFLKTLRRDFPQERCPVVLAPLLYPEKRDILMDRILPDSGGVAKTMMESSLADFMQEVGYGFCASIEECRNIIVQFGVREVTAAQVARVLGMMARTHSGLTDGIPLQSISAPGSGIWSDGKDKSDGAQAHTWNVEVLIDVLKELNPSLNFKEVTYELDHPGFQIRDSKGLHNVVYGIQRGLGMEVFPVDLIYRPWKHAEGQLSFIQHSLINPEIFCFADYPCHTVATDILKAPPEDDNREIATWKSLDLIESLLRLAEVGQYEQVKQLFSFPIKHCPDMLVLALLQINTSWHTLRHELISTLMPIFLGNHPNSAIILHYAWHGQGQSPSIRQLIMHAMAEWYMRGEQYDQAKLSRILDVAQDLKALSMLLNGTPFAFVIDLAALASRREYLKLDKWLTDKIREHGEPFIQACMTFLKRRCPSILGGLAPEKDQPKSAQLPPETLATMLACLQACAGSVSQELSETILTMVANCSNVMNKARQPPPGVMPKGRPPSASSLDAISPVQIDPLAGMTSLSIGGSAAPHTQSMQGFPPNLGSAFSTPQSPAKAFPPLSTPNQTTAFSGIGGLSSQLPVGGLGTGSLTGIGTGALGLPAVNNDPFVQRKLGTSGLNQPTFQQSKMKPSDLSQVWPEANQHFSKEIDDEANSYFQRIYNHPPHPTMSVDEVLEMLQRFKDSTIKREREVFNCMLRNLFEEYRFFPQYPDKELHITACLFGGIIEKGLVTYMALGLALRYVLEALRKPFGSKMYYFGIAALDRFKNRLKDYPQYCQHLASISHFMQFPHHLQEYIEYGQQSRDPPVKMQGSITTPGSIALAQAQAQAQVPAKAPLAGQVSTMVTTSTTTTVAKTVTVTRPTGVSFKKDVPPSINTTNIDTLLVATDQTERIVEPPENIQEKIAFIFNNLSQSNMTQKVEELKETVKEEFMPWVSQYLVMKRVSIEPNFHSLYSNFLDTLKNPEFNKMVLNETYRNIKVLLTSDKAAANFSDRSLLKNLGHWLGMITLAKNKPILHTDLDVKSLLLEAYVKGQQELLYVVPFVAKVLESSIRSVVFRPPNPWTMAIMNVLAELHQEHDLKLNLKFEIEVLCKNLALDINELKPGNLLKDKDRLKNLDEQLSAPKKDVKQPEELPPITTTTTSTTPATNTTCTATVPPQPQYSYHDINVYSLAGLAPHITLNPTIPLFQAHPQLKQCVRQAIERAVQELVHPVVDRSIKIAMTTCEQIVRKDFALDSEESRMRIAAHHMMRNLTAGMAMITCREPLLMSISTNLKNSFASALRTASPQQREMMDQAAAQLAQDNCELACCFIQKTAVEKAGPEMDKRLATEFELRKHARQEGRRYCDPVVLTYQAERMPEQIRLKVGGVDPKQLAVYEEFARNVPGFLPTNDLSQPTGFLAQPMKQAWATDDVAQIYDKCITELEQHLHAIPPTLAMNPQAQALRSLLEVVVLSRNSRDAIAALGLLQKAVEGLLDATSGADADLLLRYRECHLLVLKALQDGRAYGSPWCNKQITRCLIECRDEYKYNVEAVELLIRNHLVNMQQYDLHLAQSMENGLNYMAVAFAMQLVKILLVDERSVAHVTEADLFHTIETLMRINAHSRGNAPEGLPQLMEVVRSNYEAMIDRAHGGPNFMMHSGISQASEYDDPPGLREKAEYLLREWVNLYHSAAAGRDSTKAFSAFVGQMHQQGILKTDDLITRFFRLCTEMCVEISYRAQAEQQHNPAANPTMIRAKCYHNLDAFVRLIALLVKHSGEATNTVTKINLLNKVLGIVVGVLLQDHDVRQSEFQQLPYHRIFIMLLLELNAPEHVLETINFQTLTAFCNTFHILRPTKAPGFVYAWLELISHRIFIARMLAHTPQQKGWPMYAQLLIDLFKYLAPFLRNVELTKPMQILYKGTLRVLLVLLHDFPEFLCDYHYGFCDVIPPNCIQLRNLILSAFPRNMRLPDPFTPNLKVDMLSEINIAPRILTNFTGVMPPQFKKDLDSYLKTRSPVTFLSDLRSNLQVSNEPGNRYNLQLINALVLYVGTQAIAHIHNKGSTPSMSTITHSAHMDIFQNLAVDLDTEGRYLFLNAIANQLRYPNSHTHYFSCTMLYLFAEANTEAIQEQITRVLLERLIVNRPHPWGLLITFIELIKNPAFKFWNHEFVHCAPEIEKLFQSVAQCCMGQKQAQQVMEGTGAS
UniProt Q99729: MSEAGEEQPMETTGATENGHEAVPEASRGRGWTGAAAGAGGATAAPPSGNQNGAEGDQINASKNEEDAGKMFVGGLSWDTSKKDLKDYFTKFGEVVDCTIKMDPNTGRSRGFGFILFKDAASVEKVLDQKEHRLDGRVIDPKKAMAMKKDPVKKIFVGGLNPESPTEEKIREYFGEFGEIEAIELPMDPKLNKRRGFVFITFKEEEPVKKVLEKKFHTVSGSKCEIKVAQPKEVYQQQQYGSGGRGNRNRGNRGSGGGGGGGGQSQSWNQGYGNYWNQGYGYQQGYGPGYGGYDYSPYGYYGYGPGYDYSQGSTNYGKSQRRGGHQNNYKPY
UniProt P62318: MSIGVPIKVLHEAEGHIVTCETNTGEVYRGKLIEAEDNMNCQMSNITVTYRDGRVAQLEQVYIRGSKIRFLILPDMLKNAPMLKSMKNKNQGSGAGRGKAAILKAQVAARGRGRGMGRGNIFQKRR
UniProt P62316: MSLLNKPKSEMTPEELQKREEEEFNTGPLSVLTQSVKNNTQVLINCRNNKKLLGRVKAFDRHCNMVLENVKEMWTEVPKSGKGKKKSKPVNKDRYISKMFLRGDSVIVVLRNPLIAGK
UniProt Q16630: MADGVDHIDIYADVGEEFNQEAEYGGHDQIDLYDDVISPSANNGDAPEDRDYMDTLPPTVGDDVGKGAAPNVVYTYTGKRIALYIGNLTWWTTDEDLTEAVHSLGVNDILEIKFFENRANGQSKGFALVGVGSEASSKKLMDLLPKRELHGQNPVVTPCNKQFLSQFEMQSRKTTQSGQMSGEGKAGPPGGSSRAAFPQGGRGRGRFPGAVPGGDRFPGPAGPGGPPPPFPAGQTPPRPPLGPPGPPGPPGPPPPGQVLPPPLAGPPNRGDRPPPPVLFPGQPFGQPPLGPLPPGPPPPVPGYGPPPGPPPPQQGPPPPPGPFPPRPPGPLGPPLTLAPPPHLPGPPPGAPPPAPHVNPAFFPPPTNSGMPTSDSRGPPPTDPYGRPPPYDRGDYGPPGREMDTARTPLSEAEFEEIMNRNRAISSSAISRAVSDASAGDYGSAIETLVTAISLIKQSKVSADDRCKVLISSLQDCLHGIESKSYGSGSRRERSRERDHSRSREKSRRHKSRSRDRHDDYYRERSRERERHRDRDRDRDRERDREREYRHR
UniProt P09012: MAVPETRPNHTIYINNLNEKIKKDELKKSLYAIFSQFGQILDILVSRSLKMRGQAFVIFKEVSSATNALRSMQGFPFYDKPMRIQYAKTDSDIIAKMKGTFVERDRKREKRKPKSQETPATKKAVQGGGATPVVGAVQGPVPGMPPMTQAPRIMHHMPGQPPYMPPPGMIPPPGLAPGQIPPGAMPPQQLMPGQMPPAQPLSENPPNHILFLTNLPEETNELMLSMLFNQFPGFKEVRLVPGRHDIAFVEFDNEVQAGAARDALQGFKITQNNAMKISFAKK
UniProt Q969G3: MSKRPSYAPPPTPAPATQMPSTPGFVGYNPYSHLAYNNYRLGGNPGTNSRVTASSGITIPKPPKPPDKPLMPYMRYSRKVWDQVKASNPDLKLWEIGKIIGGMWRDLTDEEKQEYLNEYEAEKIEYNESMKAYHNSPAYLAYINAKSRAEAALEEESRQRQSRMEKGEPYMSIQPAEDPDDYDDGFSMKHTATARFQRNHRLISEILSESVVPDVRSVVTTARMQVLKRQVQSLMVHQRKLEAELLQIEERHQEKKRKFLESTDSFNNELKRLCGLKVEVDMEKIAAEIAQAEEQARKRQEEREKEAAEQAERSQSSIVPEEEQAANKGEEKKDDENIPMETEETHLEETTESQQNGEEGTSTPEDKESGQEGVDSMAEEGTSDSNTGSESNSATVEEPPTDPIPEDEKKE
UniProt P60660: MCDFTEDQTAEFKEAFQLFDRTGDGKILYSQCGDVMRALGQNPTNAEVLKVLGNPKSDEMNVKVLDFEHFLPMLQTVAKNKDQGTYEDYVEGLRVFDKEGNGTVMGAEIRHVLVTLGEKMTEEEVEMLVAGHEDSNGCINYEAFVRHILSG

Target: Karyopherin beta 1 (human (endogenous in hTERT-RPE1, HeLa, WHCO5, KYSE30)) (UniProt Q14974)
Assay: affinity purification with mass spectrometry; endogenous Kpnβ1 precipitated with 50 µg anti-Karyopherin β1 (H-7) agarose-conjugated antibody from 500 µg lysate of hTERT-RPE1, HeLa, WHCO5 or KYSE30 cells; non-denaturing lysis buffer (1% Triton X-100, 120 mM NaCl, 1 mM CaCl2, 25 mM Tris, pH 7.4); 4 °C overnight; no cross-linking; hits present in all three replicates and absent from the IgG isotype controls

binding	Substance
binds	U1 small nuclear ribonucleoprotein 70 kDa (from UniProt P08621 1-437)
binds	tubulin TUBA4A (from UniProt P68366 1-448)
binds	Protein transport protein Sec23A (from UniProt Q15436 1-765)
binds	Tubulin gamma-1 chain (from UniProt P23258 1-451)
binds	Far upstream element-binding protein 3 (from UniProt Q96I24 1-572)
binds	ELAV-like protein 1 (from UniProt Q15717 1-326)
binds	Splicing factor 3B subunit 2 (from UniProt Q13435 1-895)
binds	BUB3 (from UniProt O43684 1-328)
binds	RNA-binding protein EWS (from UniProt Q01844 1-656)
binds	Serine/arginine-rich splicing factor 1 (from UniProt Q07955 1-248)
binds	Probable ATP-dependent RNA helicase DDX17 (from UniProt Q92841 1-729)
binds	CCR4-NOT transcription complex subunit 1 (from UniProt A5YKK6 1-2376)
binds	Far upstream element-binding protein 1 (from UniProt Q96AE4 1-644)
binds	SWI/SNF complex subunit SMARCC2 (from UniProt Q8TAQ2 1-1214)
binds	Heterogeneous nuclear ribonucleoprotein A/B (from UniProt Q99729 1-332)
binds	Small nuclear ribonucleoprotein Sm D3 (from UniProt P62318 1-126)
binds	Small nuclear ribonucleoprotein Sm D2 (from UniProt P62316 1-118)
binds	ATP-dependent RNA helicase DDX3X (from UniProt O00571 1-662)
binds	tubulin TUBB6 (from UniProt Q9BUF5 1-446)
binds	Cleavage and polyadenylation specificity factor subunit 6 (from UniProt Q16630 1-551)
binds	U1 small nuclear ribonucleoprotein A (from UniProt P09012 1-282)
binds	SWI/SNF-related regulator of chromatin, SMARCE1 (from UniProt Q969G3 1-411)
binds	mediator of RNA polymerase II transcription subunit 15 (from UniProt Q96RN5 1-788)
binds	RNA-binding protein FUS (from UniProt P35637 1-526)
binds	Replication protein A 70 kDa DNA-binding subunit (from UniProt P27694 1-616)
binds	Actin-like protein 6A (from UniProt O96019 1-429)
binds	CRM1 (from UniProt O14980 1-1071)
binds	Probable ATP-dependent RNA helicase DDX5 (from UniProt P17844 1-614)
binds	Myosin light polypeptide 6 (from UniProt P60660 1-151)
